This passage reports IC50 results from patent EP4840470A1, “ANTIBODY-DRUG CONJUGATE AND USE THEREOF” (dated 2026).

Each structure is given as a SMILES string. Structures were worked out from names or drawings and are uncertain. Bounds are passed on as bounds.

Holding throughout (experiment): Proliferation of KRAS mutant cells, drug P compounds (Activity Example 6)
One experiment deals with H358 (G12C). The protocol: (§1) A sterile 1% methylcellulose 3D culture medium was prepared in advance. Cells in the logarithmic growth phase were harvested, and cell counting and viability assessment were performed using a Countstar automatic cell counter based on the classical trypan blue staining principle, ensuring that cell viability was above 90%. Cell concentrations for GP2D, HPAC, AsPC-1, KP-4, and Panc 04.03 were adjusted to a final methylcellulose (Sigma, 9004-67-5) concentration of 0.65%, mixed, and allowed to stand until no visible air bubbles. 80 µL of cell suspension (1000-2000 cells) was added to a 96-well plate (Corning, 3603). The cells in the 96-well plate were cultured overnight at 37 °C, 5% CO2, and 95% humidity (Thermo Scientific, Model 371 Series).
(§2) Preparation of drug for IC50 assay: 10 mM DMSO stock solutions of each compound were prepared. First dilution in DMSO to 5 mM, then 3-fold serial dilution to 9 concentrations to prepare DMSO solutions of different concentrations for each compound. Second 1:100 dilution (phosphate-buffered saline DPBS, Corning, 21-031-CVC) was used to prepare a 5x dilution of each compound, using complete medium as solvent. Finally, 20 µL of each compound dilution was added per well to the cell-seeded plates, with a final top concentration of 10 µM, 9 concentrations, 3-fold dilution, two replicate wells per drug concentration.
(§3) The treated plates were incubated at 37 °C, 5% CO2 for 120 hours, followed by CTG analysis (CellTiter-Glo® Luminescent Cell Viability Assay, Promega, Cat# G7573). CTG reagent was thawed, and cell plates were equilibrated to room temperature for 30 minutes. 75 µL of CTG solution was added per well. Plates were shaken on an orbital shaker for 5 minutes to lyse cells, then placed at room temperature for 20 minutes to stabilize the luminescent signal. Luminescence was read (EnVision Multimode Plate Reader, PerkinElmer #2105). Data were analyzed using GraphPad Prism 9.0 software, and dose-response curves were fitted by nonlinear S-curve regression to calculate IC50 values (nM). Cell viability (%) = (Lumtest drug−Lummedium control)/(Lumvehicle control−Lummedium control) × 100% [formula]
(§4) Following essentially the same experimental method and procedure as Activity Example 5, the inhibitory effect of representative drug P unit compounds of ADC of the present disclosure on proliferation of KRAS mutant cells was tested in cell lines H358, H727, A549, GP2D, MKN1 (purchased from Nanjing Kebai Biotechnology Co., Ltd.) and cell lines A375 and HCT116 (purchased from Cell Bank of the Chinese Academy of Sciences): […]

The subject of a further experiment is HCT116 (G13D). The protocol: as §1, §2, §3, §4
Another experiment deals with A549 (G12S). How it is done: as §1, §2, §3, §4
In a further experiment the test system is A375 (WT). How it is done:
as §1, §2, §3, §4

Another experiment concerns H727 (G12V). The protocol: as §1, §2, §3, §4
The next experiment relates to GP2D (G12D). The protocol:
as §1, §2, §3, §4

Another experiment relates to MKN1 (WT, amp). How it is done:
as §1, §2, §3, §4

For the molecule `CCN1CC/C(=C\F)[C@](C)(COc2nc(N3Cc4c(COC)c(C(=O)N(C)C)nn4CC[C@@H]3C)c3cc(C(F)(F)F)c(-c4c(F)ccc5sc(N)c(C#N)c45)c(F)c3n2)C1`, the IC50 is < 5 nM with H358 (G12C); 5 to 100 nM with HCT116 (G13D); > 100 nM in the experiment with A549 (G12S); > 100 nM with A375 (WT); < 5 nM with H727 (G12V); < 5 nM in the experiment on GP2D (G12D). Moreover, the IC50 in the experiment with MKN1 (WT, amp) was < 5 nM.

The IC50 is the concentration at which inhibition is half-maximal.
